Among the data in article doi:10.1101/2020.05.12.090472 are binding values, retold here.

Amino acid sequences for entries named in this document (tags omitted).
UniProt P61809: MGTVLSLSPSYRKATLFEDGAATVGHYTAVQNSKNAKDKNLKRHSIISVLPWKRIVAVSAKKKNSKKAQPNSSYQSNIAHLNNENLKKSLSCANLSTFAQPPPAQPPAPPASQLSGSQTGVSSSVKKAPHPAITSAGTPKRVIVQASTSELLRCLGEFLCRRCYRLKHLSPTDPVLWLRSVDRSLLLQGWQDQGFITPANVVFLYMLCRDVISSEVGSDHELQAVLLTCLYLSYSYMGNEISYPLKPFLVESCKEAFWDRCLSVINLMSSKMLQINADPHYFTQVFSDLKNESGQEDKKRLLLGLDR

Results are given in words; binding and its absence hold for the method and conditions named. Binding seen in cells or lysates may run through a third protein. Some entries that bind do so weakly or less than the wild type.

The target of test [1] is T1, biotin-conjugated scrambled peptide.
T1 sequence (peptide, biotin at the N-terminus): AFRSPCARIGYV
Kind of test: pull-down.

The target in test [2] is T2, biotin-conjugated Cdk5i peptide.
T2 sequence (peptide, biotin at the N-terminus): ARAFGIPVRCYS
Kind of test: pull-down.

For the substance “Recombinant Cdk5/p25 complex (human Cdk5 and p25 with N-terminal GST-tags) (from UniProt Q00535 1-292; Q15078 99-307)”, in test [1], the binding entry is on record as “binds weakly”.
As to “p35 of wild-type mouse brain lysate (from UniProt P61809 1-307)”, the values for the binding result in test [1] and in test [2] were “no binding” and “binds”, respectively.
The corresponding values for “Cdk2 of wild-type mouse brain lysate (from UniProt P97377 1-346) (enzyme)” are “no binding” and “no binding”.
“Cdk5 of wild-type mouse brain lysate (from UniProt P49615 1-292) (enzyme)”: the results for the binding result in test [1] and in test [2] were “no binding” and “binds”, respectively.
